Measured values taken from PMC6082143.
Results are given in words; binding and its absence hold for the method and conditions named. In cells and extracts the contact can be indirect. Binding calls can cover weak binding; strength is not graded here. Where a sequence is shown, tags or fusion partners need not be part of it.

Target: DS1-YFP^N fusion protein (rice (Oryza sativa))
Assay: split reporter; BiFC: DS1-YFP^N and OsARF11-YFP^C transiently expressed in tobacco (Nicotiana benthamiana); YFP fluorescence in the nucleus

B1: OsARF11-YFP^C fusion protein (protein, UniProt Q8S983 1-955)
chain: MASSQEKAKTGVLRNAAALLDEMQLMGETQGAKKVINSELWHACAGPLVCLPQRGSLVYYFPQGHSEQVAATTRKIPNSRIPNYPNLPSQLLCQVHNITLHADKDTDEVYAQMTLQPVNSETDVFPIPTLGAYTKSKHPTEYFCKNLTASDTSTHGGFSVPRRAAEKLFPQLDYSMQPPNQELIVRDLHDNMWTFRHIYRGQPKRHLLTTGWSLFVGAKRLKAGDSVLFIRDEKSQLLLGVRRATRQQTMLSSSVLSTDSMHIGVLAAAAHAASSGSSFTIYYNPRTSPSPFVIPVARYNKATYMQPSVGMRFAMMFETEESSKRRYTGTVVGISDYDPMRWPNSKWRNLQVEWDEHGYGERPERVSIWDIETPENTLVFPSSTLNSKRQCLPGYGVSVPGMEIGSANMSSFPRAQGNPYGSLQHIPAVGSELAIMLLNQSGQTLGSPLSFHQSSYSSIIQNVKQNYIPPLTVSTSACLTKQESLPSDDAQHQFHMANMQNGDLEGSEVQPVIDSISESKLNATSRDPRNTDSYTSRSTSEQNSKGEPRGKTRRSKKGLPHKTVSEKSDLSSAPSWICDNQQVGLESKLVGCDEQVNCGNIEDSSGALTQGNFVGQPHGHQVEQKGVLSPPKVESSKSPDGGKSVNSFPNQGCFSQFIDGLDWMTQPSYYQDSNVIQPAGVSENIFSSSADIPPSMIADTMETFQASCLSDCLPNSIQEFISSPDLNSLTFLSPDMQNLEVQLQHDGSNLPSTSNSFVQMSFSEESASQSANLSGLHMESTHRSINTTSCSQPMSTGGFDAGMYSKLPRLKESQILSLPEIHTNSMGTSACSMDATEYSLDRSAKPMKPPVRTYTKVQKQGSVGRSIDVTGFRNYHELRSAIACMFGLQGKLEHPGSSEWKLVYVDYENDVLLVGDDPWEEFINCVRCIRILSPSEVQQMSENGMHVLNDCIQAA
With B1 the binding was “binds”.
